This passage reports survivor count results from PubChem BioAssay AID190 (DTP/NCI, 2004).

SMILES strings stand for the structures. The list is a part of this screen's results and no random one: it is rich in T/C values a quarter to a half above the control, in often repeated tests (any T/C) and in doses without a T/C. Other doses and runs of a compound stand elsewhere. T/C gives the treated animals as a percentage of the vehicle group. Some entries give survivors of the animals treated and no T/C: the source files T/C as zero there, which appears to mark a toxic dose or a test without result, not a measured value. Some survivor counts are full or nearly so, which does not show that the dose was tolerated: the source hardly ever lists a survival T/C far under the control, and the zero likely stands for such cases as well. Survivors were counted at the toxicity check, usually on the fifth day, unless a day is given; later deaths do not show. Schedules are NCI's codes, taken here to give the interval after Q, in days (D) or hours (H), and the number of doses after X.

The assay relates to AKR/Lw mice, AKR lymphoma ip, median survival T/C. Put plainly: NCI In Vivo Anticancer Drug Screen. Data for tumor model Lymphoma AKR (Transplanted) (intraperitoneal) in AKR/Lw mice. The settings on record: T/C endpoint: median survival time; dose: 400.0 mg/kg/injection; schedule: Q01DX001 (ip); vehicle: Klucel (hydroxypropylcellulose) (HPC); higher T/C = longer survival. On the procedure:
The antitumor activity of compounds was measured in mice bearing transplantable tumors. Survival or tumor size were measured and the results are expressed as the measurement made in the treated group (T) divided by the measurement made in the vehicle treated control group (C). The tumor model used in this assay is Lymphoma AKR (Transplanted) (intraperitoneal) in AKR/Lw mice

On to `O=C1CSC(=S)N1c1ccco1`, for which the survivor count is 10 of 10.
